Results deposited as PubChem BioAssay AID1508597 (Cure First, 2020).
Screen: 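Survival screen with siRNA in ovarian cancer cells derived from patients, with or without rucaparib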 (primary screen). Cells: human ovarian carcinoma lines grown from tumours: OCI-P5x (papillary serous) and OCI-C5x (clear cell). Knock-down reagent: siRNA pool against human genes, 1.25 pmol siRNA per well. Duration: 72 h or 96 h, depending on the cell culture. Treatment: rucaparib 20 µM (about IC30) or vehicle, present until read-out. Detection: 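ATP luminescence measured at 72 or 96 h according to the culture, then normalised and expressed as percent viability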. Scale: viability, normalised: higher = more viable cells remaining. Rule for the call: 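Active when normalised viability falls below 80 percent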. Meaning of the calls: active = viability under 80%; inactive = viability 80% or more.
Here is an unselected part of about 2,100 reagents tested. 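Calls flag viability under 80% in either arm, not effects specific to rucaparib; the reference for percent is not stated.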 Reagent sequences are not shown. Not given: the 100% reference.

IKBKB, rucaparib or vehicle Rucaparib, cell line OCI-C5x (clear cell), technical replicate 1 → viability, normalised (%) = 37.7; outcome = active
IKBKB, rucaparib or vehicle Rucaparib, cell line OCI-C5x (clear cell), technical replicate 2 → viability, normalised (%) = 53.7; outcome = active
IKBKB, rucaparib or vehicle Rucaparib, cell line OCI-C5x (clear cell), technical replicate 3 → viability, normalised (%) = 42.1; outcome = active
IKBKB, rucaparib or vehicle Rucaparib, cell line OCI-P5x (serous), technical replicate 1 → viability, normalised (%) = 74.1; outcome = active
IKBKB, rucaparib or vehicle Rucaparib, cell line OCI-P5x (serous), technical replicate 2 → viability, normalised (%) = 75; outcome = active
IKBKB, rucaparib or vehicle Rucaparib, cell line OCI-P5x (serous), technical replicate 3 → viability, normalised (%) = 66; outcome = active
IKBKB, rucaparib or vehicle Vehicle, cell line OCI-C5x (clear cell), technical replicate 1 → viability, normalised (%) = 43.6; outcome = active
IKBKB, rucaparib or vehicle Vehicle, cell line OCI-C5x (clear cell), technical replicate 2 → viability, normalised (%) = 54.2; outcome = active
IKBKB, rucaparib or vehicle Vehicle, cell line OCI-C5x (clear cell), technical replicate 3 → viability, normalised (%) = 46.9; outcome = active
IKBKB, rucaparib or vehicle Vehicle, cell line OCI-P5x (serous), technical replicate 1 → viability, normalised (%) = 69.8; outcome = active
IKBKB, rucaparib or vehicle Vehicle, cell line OCI-P5x (serous), technical replicate 2 → viability, normalised (%) = 59.9; outcome = active
IKBKB, rucaparib or vehicle Vehicle, cell line OCI-P5x (serous), technical replicate 3 → viability, normalised (%) = 66.6; outcome = active
